PubChem BioAssay AID1259254, NCATS | 2017

- Aim: 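Finding genes that stop cells copying their DNA twice in one cycle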 (primary screen)
- System: human HCT116 colorectal cancer cells
- Reagent: single siRNA against human genes
- Timing: 3 days
- Detection: 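Nuclei stained with Hoechst and imaged; cell-cycle phase assigned by DNA content; G2 share scaled per plate, non-targeting siRNA 0%, GMNN siRNA 100%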
- Direction: G2 robust z-score and G2 cells, % of GMNN control: higher = more G2 cells, more excess DNA replication; raw share of cells in G2: higher = larger share of cells with G2 DNA content
- Hit rule: 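An siRNA counts as active if its G2 robust z-score lies at least 5 MADs above the screen median; here such calls match roughly 38% of GMNN control or more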
Here is a random part of about 59,000 deposited reagents. About 1,550 of all reagents (2.6%) count as active. 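G2 share is only a proxy for re-replication; each gene was hit by three separate siRNAs, and active genes were retested.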 Raw values vary from plate to plate and are shown uncorrected. A number with no mark means an inactive call. Reagents against one gene are numbered here. No sequences are given here. The record does not give: the amount of reagent.

gene | reagent no. | G2 robust z-score | G2 cells, % of GMNN control | raw share of cells in G2 (%)
ZNHIT2 (zinc finger HIT-type containing 2) | 1 | 0.0512 | 3.33 | 4.32
ZNHIT2 (zinc finger HIT-type containing 2) | 2 | 0.707 | 7.94 | 6.61
ZNHIT2 (zinc finger HIT-type containing 2) | 3 | 1.62 | 14.4 | 11.6
BOP1 (BOP1 ribosomal biogenesis factor) | 1 | 1.43 | 13 | 8.05
BOP1 (BOP1 ribosomal biogenesis factor) | 2 | 0.996 | 9.98 | 8.89
BOP1 (BOP1 ribosomal biogenesis factor) | 3 | 0.123 | 3.83 | 5.72
SLC35G1 | 1 | 0.604 | 7.22 | 6.19
SLC35G1 | 2 | -0.326 | 0.671 | 3.18
SLC35G1 | 3 | -0.0813 | 2.4 | 3.52
LNX1 (ligand of numb-protein X 1) | 1 | 0.126 | 3.85 | 5.59
LNX1 (ligand of numb-protein X 1) | 2 | 1.6 | 14.2 | 11.3
LNX1 (ligand of numb-protein X 1) | 3 | -0.981 | -3.94 | 3.33
LRRC38 (leucine rich repeat containing 38) | 1 | 0.08 | 3.53 | 5.51
LRRC38 (leucine rich repeat containing 38) | 2 | 0.361 | 5.51 | 4.85
LRRC38 (leucine rich repeat containing 38) | 3 | -0.182 | 1.69 | 3.19
THOC6 (THO complex subunit 6) | 1 | 0.69 | 7.83 | 7.99
THOC6 (THO complex subunit 6) | 2 | 3.08 | 24.6 | 15.6
THOC6 (THO complex subunit 6) | 3 | 0.538 | 6.75 | 4.48

3 neighbouring reagents already listed:
gene | reagent no. | G2 robust z-score | G2 cells, % of GMNN control | raw share of cells in G2 (%)
LRRC38 (leucine rich repeat containing 38) | 2 | 0.361 | 5.51 | 4.85
LRRC38 (leucine rich repeat containing 38) | 3 | -0.182 | 1.69 | 3.19
THOC6 (THO complex subunit 6) | 1 | 0.69 | 7.83 | 7.99

Next records:
gene | reagent no. | G2 robust z-score | G2 cells, % of GMNN control | raw share of cells in G2 (%)
HELT (helt bHLH transcription factor) | 1 | 2.99 | 24 | 16.3
HELT (helt bHLH transcription factor) | 2 | 3.86 | 30.1 | 16.7
HELT (helt bHLH transcription factor) | 3 | -1.19 | -5.38 | 2.32
SLC7A1 | 1 | -0.873 | -3.17 | 3.46
SLC7A1 | 2 | -0.979 | -3.92 | 2.66
SLC7A1 | 3 | -1.25 | -5.82 | 3.72
TFAP2B (transcription factor AP-2 beta) | 1 | 0.679 | 7.75 | 6.53
TFAP2B (transcription factor AP-2 beta) | 2 | -0.813 | -2.75 | 3.56
TFAP2B (transcription factor AP-2 beta) | 3 | -0.684 | -1.84 | 2.44
LHX3 (LIM homeobox 3) | 1 | 1.01 | 10.1 | 9.85
LHX3 (LIM homeobox 3) | 2 | 0.196 | 4.35 | 5.91
LHX3 (LIM homeobox 3) | 3 | -0.551 | -0.91 | 3.92
